The results in this text go back to PubChem BioAssay AID2685 (National Center for Advancing Translational Sciences (NCATS), 2010).

This assay can be described thus: qHTS Assay for Lipid Storage Modulators in Drosophila S3 Cells.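 On cell number change: cells counted by Cell Tracker Red CMTPX staining in the red channel.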 The settings on record: BODIPY lipid droplet fluorescence, 18-24 h; for cell number change: measured here: cell count max response, cells fed with added oleic acid. In outline: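 Drosophila S3 cells got compounds at several concentrations plus oleic acid (400 uM solution). Laser-scanning cytometry with 488 nm excitation read lipid droplets at 500-530 nm and cells at 575-640 nm. Percent activity was relative to 20 uM Triacsin C.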

Where [1] appears, read: measured here: lipid fluorescence (Fed channel) AC50, cells fed with added oleic acid.
[2] abbreviates: measured here: cell number channel AC50, cells fed with added oleic acid.

Each structure is given as a SMILES string. The list shows a part of the results. The main result of the screen is listed elsewhere. These columns were measured beside it and carry no call. Most of these compounds were active or inconclusive in the main read-out, so they are no random draw. The note in brackets gives the kind of curve behind each potency; many fits are weak.

Take `COc1ccc(-c2nnc(SCC(=O)N3CCCCC3)o2)cc1`: the cell number change was -8.97%. For `COc1ccc(CN2C3CCC2CC(NC(=O)c2cccc(F)c2)C3)cc1` (configuration not stated), the cell number change is -10.8%. The AC50 under setting [1] was 6.51 µM [rising, single point]. Regarding `C/C(=N\NC(=O)Cn1nnc2ccccc21)c1ccco1`, the cell number change was 10%. In addition, the AC50 under setting [1] is 0.13 µM [falling, full curve, poor fit]. On to `CCCCn1c(CCc2ccccc2)nc2cc3[nH]c(=O)c(C(C)C)nc3cc21`, for which the cell number change was -17.8%. The AC50 under setting [1] was 5.8 µM [falling, single point]. Regarding `CCOC(=O)c1oc2ccccc2c1NC(=O)c1ccc2c(c1)OCO2`, the cell number change is 4.18%. Turning to `O=S(=O)(NCc1ccco1)N1CCCCCC1`, the cell number change is -72.6%. Further, the AC50 under setting [2] was 32.6 µM [falling, single point]. In the case of `COCCN=c1scc(-c2cc(OC)ccc2OC)n1/N=C/c1c[nH]c2ccccc12`, the cell number change was -27.2%. Further, the AC50 under setting [1] is 29.1 µM [falling, single point]. `CCNC(=O)N(C)c1nncnc1C(=O)NC`: the cell number change is -12.9%. Turning to `COc1cccc(N2C(=O)N(c3ccccc3)C3CS(=O)(=O)CC32)c1` (configuration not stated), the cell number change was -7.74%. Further, the AC50 under setting [1] was 0.184 µM [falling, full curve, poor fit]. Take `Cc1ccc2nc(-c3ccc(SCC(=O)N4CCc5ccccc54)nc3)[nH]c2c1`: the cell number change was -90.2%. For the same compound, the AC50 under setting [2] is 18.4 µM [falling, partial curve]. For the same compound, under setting [1], the AC50 is 29.1 µM [falling, single point]. `C=CCc1c(C)c(C#N)c2nc3ccccc3n2c1NCCN(C)C`: the cell number change was determined as 18.8%. Also, the AC50 under setting [1] is 2.31 µM [rising, single point]. Turning to `CC(C)(C)C(=O)N1CCN(c2c(Cl)cccc2[N+](=O)[O-])CC1`, the concentration at half-maximal activity (AC50) under setting [1] was 0.461 µM [rising, single point]. As for `COc1cc(OC)c(C(=O)NNC(=S)NC2CCCCC2)cc1OC`, the cell number change is 33.6%. For the same compound, under setting [2], the AC50 was 1.3 µM [rising, full curve]. In addition, the AC50 under setting [1] was 1.64 µM [rising, full curve]. Turning to `COCC(=O)Nc1nc2n(n1)C(c1ccc(Cl)cc1)CC(c1ccc(OC)cc1)N2` (configuration not stated), the cell number change turned out to be 36.9%. In addition, the AC50 under setting [2] is 16.4 µM [rising, partial curve, poor fit].

As for `Cc1ccc(C(=O)COC(=O)CCCC(=O)Nc2cc(C(F)(F)F)ccc2Cl)cc1C`, the cell number change is -37.5%. Besides, the AC50 under setting [2] is 29.1 µM [falling, single point]. Besides, under setting [1], the AC50 is 0.103 µM [falling, full curve, poor fit]. As for `Cc1ccc2c(c1)/C(=N/N1C(=O)c3ccccc3C1=O)C(=O)N2`, the cell number change was -1.13%. The AC50 under setting [1] was 0.259 µM [falling, full curve, poor fit].

Regarding `CCOC(=O)N1CCN(C(=O)C(CC(C)C)NS(=O)(=O)c2ccc3c(c2)oc(=O)n3C)CC1` (configuration not stated), the cell number change stood at 94.9%. For the same compound, under setting [1], the AC50 is 29.1 µM [rising, single point]. For the compound `CCn1cc(CNC(=O)c2ccc3nc(Cc4ccccc4F)oc3c2)cn1`, the cell number change is -13.8%. For the same compound, under setting [1], the AC50 is 1.46 µM [rising, partial curve].

On to `CCCC1=C(C(=O)OCC)C(c2cccs2)n2ncnc2N1` (configuration not stated), for which the cell number change is -18.6%. Further, the AC50 under setting [2] is 0.00411 µM [falling, full curve, poor fit]. `CCC1CCCCN1C(=O)CSc1nnc(-c2ccc(Cl)cc2)o1` (configuration not stated): the cell number change was -6.35%.

For the compound `CN(C)S(=O)(=O)c1ccc(Cl)c(NC(=O)COC(=O)/C=C/c2ccco2)c1`, the cell number change is -61.3%.

Consider `COc1cc(C(=O)OCCCOC(=O)c2cc(OC)c(OC)c(OC)c2)cc(OC)c1OC`, for which the cell number change turned out to be 5.24%. The AC50 under setting [2] was 3.55 µM [falling, single point]. Besides, the AC50 under setting [1] was 2.24 µM [falling, partial curve]. As for `O=C(Nc1ccncc1)Nc1cc(Cl)ccc1Cl`, the AC50 under setting [1] was 6.51 µM [rising, single point].

On to `COc1ccc(-c2noc(C(=O)NCc3ccc(F)cc3)n2)cc1OC`, for which the cell number change came out at 36.3%. Also, the AC50 under setting [2] was 9.2 µM [rising, single point]. Consider `Cc1ccc(NC(=O)CN2CCC(NC(=O)c3ccccc3F)CC2)cc1C`, for which the cell number change was determined as 27.4%. For the same compound, under setting [1], the AC50 was 14.6 µM [rising, partial curve]. With `Cc1csc(=Nc2ccc(S(=O)(=O)N3CCOCC3)cc2)n1Cc1ccco1`, the cell number change is -17.2%. In the case of `COCCNC(=O)Cn1nc(C(F)(F)F)c(Br)c1C`, the cell number change was -65.9%. The AC50 under setting [2] was 18.4 µM [falling, single point]. Regarding `CCCNCc1cc(OC)c(OCC(=O)NCCc2ccccc2)cc1Br`, the cell number change is 31.8%. In addition, under setting [2], the AC50 was 2.06 µM [rising, full curve, poor fit]. Besides, the AC50 under setting [1] is 16.4 µM [rising, partial curve]. In the case of `Fc1cnc(N2CCc3ccccc32)nc1N1CCc2ccccc21`, the cell number change worked out at 12.8%. With `CC(=O)NCCn1c(C)cc2ccccc21`, the cell number change was -68.6%. For the same compound, the AC50 under setting [2] was 11.6 µM [falling, partial curve]. Take `CCN(CC)S(=O)(=O)c1ccc(NC2c3ccccc3C(=O)N2c2ccc(C)cn2)cc1` (configuration not stated): the cell number change was 9.16%. In addition, the AC50 under setting [2] was 0.164 µM [rising, full curve, poor fit]. Turning to `COCCCNC(=O)Cn1ccc(N)nc1=O`, the cell number change is -6.62%. Besides, the AC50 under setting [1] was 29.1 µM [rising, single point]. For `COCC(C)n1c(SCC(=O)Nc2ccc3c(c2)OCCO3)nc2ccccc2c1=O` (configuration not stated), the cell number change was determined as 1.09%. For the same compound, under setting [1], the AC50 is 13 µM [falling, partial curve].

As to `COc1ccc(S(=O)(=O)N2CCN(C)CC2)cc1C(=O)N1CCCCC1`, the cell number change was found to be 28%. Further, the AC50 under setting [2] was 1.3 µM [rising, full curve, poor fit]. In addition, the AC50 under setting [1] is 5.17 µM [rising, single point]. `CCn1c2ccccc2c2nnc(SCC(=O)NCCOC)nc21`: the cell number change is -4.36%. Besides, under setting [1], the AC50 is 1.16 µM [rising, full curve, poor fit]. For the compound `C=CCOn1c(=O)c(=O)n(OCc2ccccc2)c2ccccc21`, the cell number change is -3.07%. `Cc1ccnc(NS(=O)(=O)c2ccccc2)c1`: the cell number change was determined as 8.01%. Further, the AC50 under setting [1] is 0.58 µM [rising, single point].

On to `CC(C)(C)C(=O)Nc1ccc(N2CCCC2)cc1`, for which the cell number change was -7.03%. Besides, the AC50 under setting [1] was 6.51 µM [falling, single point]. Regarding `CCOc1cc(-c2cn(S(=O)(=O)c3cccc4nsnc34)nc2N)cc(OCC)c1OCC`, the AC50 by setting is: under setting [2], 2.91 µM [rising, partial curve]; under setting [1], 4.61 µM [rising, partial curve]. Turning to `COC(=O)c1sc(NC(=O)c2ccc(Cn3cc(Cl)cn3)o2)c(C#N)c1C`, the cell number change was -17.8%.

For the compound `CCCC1(C(=O)O)NC(c2ccccc2O)C2C(=O)N(c3cccc(Cl)c3)C(=O)C21` (configuration not stated), the cell number change is 19.9%. Also, the AC50 under setting [1] is 29.1 µM [rising, single point]. `Cc1ccc(NCc2nnc(SCC(=O)c3ccc4c(c3)OCCO4)o2)c(C)c1`: the cell number change was -40%. For the same compound, the AC50 under setting [2] is 3.66 µM [falling, partial curve]. Turning to `C/C(=N\NC(=O)c1cc(-c2cccnc2)nc2ccccc12)c1ccccc1O`, the cell number change was -15.8%. Further, the AC50 under setting [1] was 29.1 µM [falling, single point]. On to `COc1ccc(Cl)cc1NC(=O)c1[nH]c(C)c(C(C)=O)c1C`, for which the cell number change turned out to be 6.67%. The AC50 under setting [1] is 6.51 µM [falling, single point]. Take `COCC(C)N=C1NN=C(c2c[nH]c3ccccc23)CS1` (configuration not stated): the cell number change was found to be 23.8%. Also, the AC50 under setting [1] is 6.51 µM [falling, single point]. Regarding `C#CCOCCOCCOCCNc1nc(N2CCN(C(=O)Cn3cc(CCCCN)nn3)CC2)nc(N2CCN(C(=O)Cn3cc(CCCN=C(N)N)nn3)CC2)n1`, the cell number change is 24.8%. Further, the AC50 under setting [2] was 0.58 µM [rising, full curve, poor fit].

Take `O=C(Nc1ccc(Cl)cc1)N1CCOC12CCCCC2`: under setting [1], the AC50 was 0.146 µM [falling, full curve, poor fit]. Regarding `O=C(CN(c1cccc(Cl)c1)S(=O)(=O)c1ccc(Cl)cc1)NCc1ccccn1`, the cell number change was -15.2%. As to `CC(C)CN(CCC(=O)O)CC(C)C`, the cell number change was -34.8%. Further, the half-maximal activity concentration (AC50) under setting [2] is 0.0291 µM [falling, full curve]. Moreover, the AC50 under setting [1] was 0.0517 µM [falling, full curve]. `O=C(C1CCCN(S(=O)(=O)c2cccc3nsnc23)C1)N1CCc2ccccc2C1` (configuration not stated): the cell number change is -0.778%. In the case of `CC(NC(=O)CN(C)CC(=O)Nc1cccc(F)c1)c1ccccc1` (configuration not stated), the cell number change was -8.77%. Further, under setting [1], the concentration at half-maximal activity (AC50) was 29.1 µM [falling, single point].

Consider `COc1cccc(N2CCN(C3OC(=O)c4ccccc43)CC2)c1` (configuration not stated), for which the cell number change was found to be 13.3%. For the compound `CCN(CC)S(=O)(=O)c1cccc(C(=O)Oc2cccc(NC(=O)c3cccs3)c2)c1`, the cell number change is 85.4%. Further, the AC50 under setting [2] was 3.66 µM [rising, full curve]. In addition, the AC50 under setting [1] was 4.61 µM [rising, full curve]. In the case of `Cc1ccc(C)c(NC(=S)NCCCN2CCOCC2)c1`, the cell number change was -5.81%. For the same compound, the AC50 under setting [2] is 0.103 µM [falling, full curve, poor fit]. Further, under setting [1], the AC50 is 6.51 µM [falling, single point]. On to `O=C(c1ccccc1Oc1ccc([N+](=O)[O-])cc1)N1CCOCC1`, for which the cell number change is -7.91%. `COc1cc(C(=O)NCC(=O)N/N=C/c2ccc(OC(=O)c3ccco3)cc2)cc(OC)c1OC`: the cell number change was -33.4%. The AC50 under setting [1] was 0.82 µM [falling, full curve, poor fit].

For `COc1ccc(COC(=O)c2cccc(S(=O)(=O)N3CCN(C(C)=O)CC3)c2)cc1F`, the cell number change was 0.694%. In addition, the half-maximal activity concentration (AC50) under setting [2] is 6.51 µM [falling, single point]. Further, the concentration at half-maximal activity (AC50) under setting [1] was 6.51 µM [falling, single point]. `COc1ccc(OC)c(-n2c(SCC(=O)NCc3ccco3)nnc2-c2c[nH]c3ccccc23)c1`: the cell number change is -31.1%. Moreover, the AC50 under setting [2] was 0.411 µM [falling, full curve, poor fit]. Further, under setting [1], the AC50 was 1.03 µM [falling, partial curve]. On to `CCCCn1c(N)c(N(CC(C)C)C(=O)C2CCN(S(=O)(=O)c3ccc(F)cc3)CC2)c(=O)[nH]c1=O`, for which the cell number change was -0.567%. The AC50 under setting [1] is 29.1 µM [rising, single point]. `O=C(NC1CCCCC1)C1CC(=O)N(c2ccccc2)C1` (configuration not stated): the cell number change is -20.5%. For the same compound, the AC50 under setting [1] was 6.51 µM [rising, single point]. `O=C(Cc1cccs1)Nc1ccc(S(=O)(=O)N2CCCCC2)cc1`: the cell number change is -143%. Moreover, the AC50 under setting [2] was 29.1 µM [falling, single point].
